Results are given in words; binding and its absence hold for the method and conditions named. Binding calls can cover weak binding; strength is not graded here.
Biological target: FaGL3 (Fragaria × ananassa)
Test: two-hybrid; Matchmaker Gold system; baits fused to the Gal4 DNA-binding domain (pGBKT7), preys to the Gal4 activation domain (pGADT7); read on QDO/X/A (SD/-Trp/-Leu/-His/-Ade/+X-α-gal/+AbA)

FaTTG1 (from UniProt A0A9E9M670)
binding: binds
